Test results as given in PubChem BioAssay AID504834 (National Center for Advancing Translational Sciences (NCATS), 2011).
Hit rate of the full screen: of about 320,000 compounds, about 22,000 (6.9%) were called active. Inconclusive results, whose numbers are uncertain, are shown with a selection of clear calls. Calls come from the whole dose curve; as a rule, active = well fitted inhibition curve with a large enough effect; inconclusive = small, poorly fitted or top-dose-only effect, or another doubt; inactive = no such curve, though single readings can be large or run the other way. Where the call is inconclusive, the potency comes from a doubtful curve fit.

assay: Primary qHTS for delayed death inhibitors of the malarial parasite plastid, 96 hour incubation; settings: P. falciparum luciferase reporter growth; series mostly up to 28.7 µM
Summary of the method: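 Cell-based qHTS: luciferase-tagged P. falciparum in erythrocytes (2% hematocrit, 0.05% parasitemia final) incubated with compounds for 96 hours, 37 C, 5% CO2; luciferase detection reagent then added and luminescence measured.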
% is set by controls: 0 for no effect and ±100 for the full control effect; potency is the fitted concentration of half-maximal effect.

Compound	Potency	activity change, negative = inhibition
O=[N+]([O-])c1cc(O)c2ncccc2c1	inconclusive: 18.5 µM [inhibitor, single point]	
CC(=O)Nc1ccc(/C=N/Nc2nc3ccccc3[nH]2)cc1	inconclusive: 2.08 µM [inhibitor, full curve, poor fit]	
COc1ccc(C2Nc3ccccc3C(=O)N2Cc2ccco2)cc1CN1C(=O)c2ccccc2C1=O (centres undefined)	inconclusive: 2.33 µM [inhibitor, partial curve, poor fit]	
CCN(CC(=O)Nc1ccc(Br)cc1)C(=O)Cc1cccc(F)c1	inactive	
COc1ccccc1/C=C1\SC(=S)N(N2C(=O)CCCC2=O)C1=O		inactive: -54.2% [at 1.15 µM]
Cc1ccc(C2C(C#N)=C(N)Oc3cc(N)ccc32)cc1 (centres undefined)	inactive	
O=S(=O)(NCc1ccccc1)c1ccc(NC(=S)NCc2ccco2)cc1	inconclusive: 10.4 µM [inhibitor, single point]	
O=C(Nc1c(S(=O)(=O)c2ccccc2)csc1Br)c1ccccc1Cl	inconclusive: 18.5 µM [inhibitor, single point]	
CCN1CCN(c2ccc(N)c(C)c2)CC1	inconclusive: 14.7 µM [inhibitor, partial curve, poor fit]	
COc1nc(-c2ccccc2)ncc1S(=O)(=O)c1ccccc1	inconclusive: 18.5 µM [inhibitor, single point]	
N#CCCN1CCN(C2=NC(=O)C(=C3CCCCC3)S2)CC1	active: 2.62 µM	
Cc1ccc(NC(=S)N2CCC(N(C)CC3CCCO3)CC2)cc1C (centres undefined)	active: 1.47 µM	
COc1ccc(/C=C/c2nnc(NC(=O)COc3cccc(C)c3)s2)cc1	inconclusive: 18.5 µM [inhibitor, single point]	
CC(C)(C)SCCNC(=O)CN(c1ccccc1)S(=O)(=O)c1ccccc1	inconclusive: 18.5 µM [inhibitor, single point]	
COc1ccc(-c2cc3cc(-c4cc(OC)c(OC)c(OC)c4)ccc3o2)cc1	inactive	
CCN1CCCC1CNC(=O)CN(C)S(=O)(=O)c1ccc(Cl)cc1 (centres undefined)	inactive	
COc1ccc(NC(=O)CN(C)C(=O)c2cccc(Oc3ccccc3)c2)cc1	inconclusive: 0.0657 µM [inhibitor, full curve, poor fit]	
CCOc1ccc(N(CC(=O)NC2CCCC(C)C2C)S(=O)(=O)c2c(C)noc2C)cc1 (centres undefined)	inconclusive: 0.522 µM [inhibitor, full curve, poor fit]	
O=C(O)CCSc1nc2ccc(Br)cc2[nH]1	inconclusive: 8.28 µM [inhibitor, partial curve]	
N#CCCN1CCN(C(=S)c2ccc(-c3cc(Cl)ccc3Cl)o2)CC1	active: 5.22 µM	
CC(C)OP(=O)(OC(C)C)C(Nc1ccccc1)c1cccnc1 (centres undefined)	inactive	
CCC(NC(=O)Cc1cccs1)c1ccccc1 (centres undefined)	active: 5.86 µM	
CCOC(=O)c1c(C)[nH]c(C(=O)N/N=C/c2cc([N+](=O)[O-])ccc2O)c1C	inconclusive: 1.65 µM [inhibitor, full curve, poor fit]	
O=C(Cc1ccccc1Cl)Nc1cccc(S(=O)(=O)N2CCCCCC2)c1	inconclusive: 10.4 µM [inhibitor, partial curve]	
C[n+]1cccc(/C=N/NC(=O)CC23CC4CC(CC(C4)C2)C3)c1	active: 0.586 µM	

Retrieved by compound from the entries so far, 5 records:
Compound	Potency	activity change, negative = inhibition
COc1ccc(C2Nc3ccccc3C(=O)N2Cc2ccco2)cc1CN1C(=O)c2ccccc2C1=O (centres undefined)	inconclusive: 2.33 µM [inhibitor, partial curve, poor fit]	
CCN1CCN(c2ccc(N)c(C)c2)CC1	inconclusive: 14.7 µM [inhibitor, partial curve, poor fit]	
COc1ccc(-c2cc3cc(-c4cc(OC)c(OC)c(OC)c4)ccc3o2)cc1	inactive	
CCN(CC(=O)Nc1ccc(Br)cc1)C(=O)Cc1cccc(F)c1	inactive	
C[n+]1cccc(/C=N/NC(=O)CC23CC4CC(CC(C4)C2)C3)c1	active: 0.586 µM	

Remaining list, next part.

Compound	Potency	activity change, negative = inhibition
Cc1cccc(-c2nc(CS(=O)CC(=O)NCc3cccs3)c(C)o2)c1 (centres undefined)	inconclusive: 8.28 µM [inhibitor, single point]	
Cc1cc(C)nc(Nc2ncc(O)n2-c2ccc(Br)cc2)n1	inactive	
COc1ccccc1CNC(=O)N1CCN(c2ccccc2Cl)CC1	inconclusive: 14.7 µM [inhibitor, partial curve]	
Cc1cccc2cncc(OCc3nnc(SC(F)F)n3C)c12	inactive	
COC(=O)c1cc(S(=O)(=O)NCc2ccc3c(c2)OCO3)cn1C	inconclusive: 18.5 µM [inhibitor, single point]	
OCCCc1nc2ccccc2n1CCOc1ccccc1	inconclusive: 11.7 µM [inhibitor, single point]	
CCCc1cc(=O)[nH]c(SCc2nc3ccccc3o2)n1	inconclusive: 0.0828 µM [inhibitor, full curve, poor fit]	
COc1cccc(C(=O)N(C)c2nnc(-c3ccncc3)s2)c1	inactive	
Cc1ccc(C)c(-n2cc(CNCCc3cnccn3)c(-c3ccccc3)n2)c1	inconclusive: 18.5 µM [inhibitor, single point]	
CO[C@H]1[C@@H](OC(N)=O)[C@H](O)[C@@H](Oc2ccc3c(O)c(NC(=O)c4ccc(O)c(CC=C(C)C)c4)c(=O)oc3c2C)OC1(C)C	inactive	
COC(=O)C1=C(c2ccc(Cl)c(C(F)(F)F)c2)C[C@@H]2CC[C@H]1N2C(=O)NCc1ccco1	active: 8.28 µM	
CCOc1ccc(C(=O)N2CCN(CCc3ccccc3)CC2)cc1OCC	inconclusive: 14.7 µM [inhibitor, partial curve]	
COc1ccc(OC)c(CNC(=O)CCCn2ccc3cc(S(=O)(=O)N4CCCC4)ccc32)c1	inactive	
C=CCn1c(SCC(=O)Nc2ccc3c(c2)OCO3)nnc1-c1cc(Br)ccc1O	inactive	
COc1ccc(/C=N/Nc2nncn2N)cc1Br	inconclusive: 0.522 µM [inhibitor, full curve, poor fit]	
O=C(Nc1ccc2nc3ccccc3nc2c1)c1ccc(Br)cc1	inconclusive: 13.1 µM [inhibitor, single point]	
COCCCNC(=O)COc1cc2c(c3oc(=O)c(C)c(C)c13)CCC(C)(C)O2	inactive	
CSCCC(NS(=O)(=O)c1cccs1)C(=O)NCc1ccc(C)cc1 (centres undefined)	inconclusive: 9.28 µM [inhibitor, single point]	
COc1ccc(CNC(=O)c2cccc(C)c2[N+](=O)[O-])cc1	inconclusive: 18.5 µM [inhibitor, single point]	
CC(C)OC(=O)Cn1nc(C(c2ccccc2)c2ccccc2)oc1=O	inactive	
COc1ccc(N2CCN(CCNC(=O)Nc3cc(Cl)ccc3OC)CC2)cc1	inconclusive: 2.33 µM [inhibitor, full curve]	
CCNc1nc(NCC)nc(N(C)N)n1	inconclusive: 3.7 µM [inhibitor, partial curve]	
COc1ccc(Cc2nc3ccc(C(=O)N(C)CC4COCCO4)cc3o2)cc1 (centres undefined)	inactive	
CCn1c2ccccc2c2nnc(SCCN3CCCCC3)nc21	inconclusive: 20.8 µM [inhibitor, single point]	
COc1ccc(N2C(=O)N3[C@H](c4ccc(Cl)cc4)[C@@H]4C(=O)N(C5CCCCC5)C(=O)[C@@H]4[C@]3(C)C2=O)cc1	active: 2.33 µM	

Compound	Potency	activity change, negative = inhibition
CN(CC(=O)Nc1ccccc1[N+](=O)[O-])Cc1ccc(Br)cc1	inconclusive: 11.7 µM [inhibitor, single point]	
CC(=O)Nc1ccc(C(=O)OCC(=O)Nc2ccccc2Sc2ccccc2)cc1	inconclusive: 10.4 µM [inhibitor, single point]	
O=C(NNc1ccc(Cl)cc1)c1c(F)cccc1Cl	inactive	
COc1cc(NC(=O)CSc2cc(C)c3cc(C)cc(C)c3n2)c(C(=O)O)cc1OC	inconclusive: 4.15 µM [inhibitor, single point]	
O=C(NC1CC1)C1=NOC(CNc2ncc(C(F)(F)F)cc2Cl)C1 (centres undefined)	active: 11.7 µM	
CCCCNS(=O)(=O)c1ccc2nc(-c3cccnc3)cc(C(=O)NCC(OC)OC)c2c1	inactive	
c1ccc(CNc2nc(-c3cccs3)nc3ccccc23)nc1	inactive	
Cc1ccc(NC(=O)Nc2c(C)n(C)n(-c3ccccc3)c2=O)cc1	inactive	
CCN(CC(=O)Nc1ccc(NC(C)=O)cc1)C(=O)/C=C/c1ccc2c(c1)OCO2	inactive	
CCOc1cc(/C=N\NC(=O)C2C(=O)NCC2c2ccccc2)ccc1OC (centres undefined)	inactive	
CCOC(=O)N1CCC(NC(=O)c2ccc3c(c2)N=C(C)c2c(C)ccc(C)c2S3)CC1	inconclusive: 18.5 µM [inhibitor, single point]	
Cc1cc(Cn2nnnc2-c2ccncc2)cc(C)c1O	inconclusive: 5.22 µM [inhibitor, partial curve]	
CSc1nnc(CCNS(=O)(=O)c2ccccc2Br)n1C	inactive	
Cc1ccc2c(=O)[nH]c(Nc3nc(C)cc(-c4ccccc4)n3)nc2c1	inconclusive: 9.28 µM [inhibitor, partial curve, poor fit]	
CN(Cc1cc([N+](=O)[O-])c2cccnc2c1O)C1CCCCC1	inactive	
O=C(CSc1nnc(CNC(=O)c2ccc(F)cc2)o1)Nc1ccc2c(c1)OCCO2	inconclusive: 2.94 µM [inhibitor, full curve]	
CCOc1ccc(-c2n[nH]c(C)c2-c2ccccn2)c(O)c1	inactive	
CC(C)(C)OC(=O)NNC(=O)c1ccc(Cl)cc1	inactive	
O=C(OCC(=O)N1CCCC1)c1c2c(nc3ccccc13)CCCCC2	inconclusive: 18.5 µM [inhibitor, single point]	
CCOc1ccccc1NC(=O)CC1SC(=N)N(c2ccccc2)C1=O (centres undefined)	inactive	
CCCC(=O)Nc1ccccc1-c1nnc(SC)[nH]c1=O	inconclusive: 18.5 µM [inhibitor, single point]	
NS(=O)(=O)c1ccc(N/C=C\C(=O)c2ccc(F)cc2)cc1	inconclusive: 16.5 µM [inhibitor, single point]	
CCOC(=O)c1ccc(NC(=S)NC(=O)c2cncc(Br)c2)cc1	inactive	
CCNc1nc(NCC)n2c(SCC(=O)Nc3ccccc3C(F)(F)F)nnc2n1	inconclusive: 10.4 µM [inhibitor, single point]	
